{
  "source": "patent US7172879B2",
  "about": "“Detection of sphingosine kinase activity and sphingosine kinase agonist or antagonist activity” (Johnson & Johnson Pharmaceutical Research & Development LLP, priority 1997, dated 2007)",
  "tested_on": "NF-κB",
  "experiment": "NF-κB binding activity in HUVEC nuclear extracts, electrophoretic mobility shift assay",
  "assay_type": "cell-based, human",
  "settings": "HUVECs, 30 min treatment",
  "experimental": "After the cells were treated with an agent for 30 min, ERK activities were assayed with mycline basic protein (MBP) as substrate after immunoprecipitation with antibodies against p42/p44^MAPK (Berra et al. 1995; Li et al., 1996; Lee et al., 1997). The kinase reaction products were separated on 10% SDS-polyacrylamide gels. Bar graph depicting ERK activities were quantified by Phosphoimager. NF-κB binding activity was measured by electrophoretic mobility shift assay after 30 min treatment as indicated. The specific NF-κB binding complexes were identified by the super-shift gel assay with anti-p50 and anti-p65 antibodies and by competition analyses with the addition of a 50-fold molar excess of unlabelled NF-κB oligonucleotides.\nTo measure the NF-κB binding activity, electrophoretic mobility-shift assays were performed. Nuclear extracts were prepared from HUVECs treated for 30 min with vehicle or the indicated agents. The double-stranded oligonucleotides used as a probe in these experiements included 5′-[…]-3′ (SEQ ID NO: 1) which contains a consensus NF-κB binding site in E-selection promoter that is underlined. Gel mobility shift of a consensus NF-κB oligonucleotide was performed by incubating ^32P-labelled NF-κB probe with […] of nuclear proteins. The Sph-1-P induced formation of NF-κB specific complexes were similar us that induced by TNFα. […]",
  "note": "Some entries share one result that the patent states for a list of compounds.",
  "data": [
    {"substance": "N,N-dimethylsphingosine [DMS]", "values": [
      {"measurement": "inhibition of TNFα-induced activation of NF-κB", "value": "45–60%"}
    ]}
  ]
}
